Data as given in PubChem BioAssay AID248 (DTP/NCI, 2004).
The list shows only some results of the screen, not a fair sample: it is rich in T/C values a quarter to a half above the control, in often repeated tests (any T/C) and in doses without a T/C. Further doses and runs are listed elsewhere. T/C is the treated group as % of the vehicle group. Some doses have a count of surviving animals in place of a T/C: the source files T/C as zero there, which appears to mark a toxic dose or a test without result, not a measured value. Some survivor counts are full or nearly so, which does not show that the dose was tolerated: the source hardly ever lists a survival T/C far under the control, and the zero likely stands for such cases as well. Counts of survivors are from the toxicity check (mostly the fifth day) where no day follows; animals may have died later. Schedules are NCI's codes, read here as Q, the interval in days (D) or hours (H), X, the number of doses. Some schedules carry Z or #; the key to these is not given. For survival time, the PubChem record calls one and a half times the control and up active, and a quarter to a half above the control has no call in these data; cut-offs in other NCI protocols can differ. Some entries were tested several times; their values stand side by side, smallest first. Some T/C values carry the count of animals alive at the toxicity check (mostly the fifth day); where none is given, no animal had died by that day.

Test system: L1210 leukemia ip in BDF1 mice, survival T/C
Test: NCI In Vivo Anticancer Drug Screen. Data for tumor model L1210 Leukemia (intraperitoneal) in B6D2F1 (BDF1) mice
Conditions: T/C endpoint: mean survival time, higher T/C = longer survival
[1] = dose: 18.75 mg/kg/injection, schedule: Q01DX Z (ip), vehicle: methylcellulose (MC)
[2] = dose: 37.5 mg/kg/injection, schedule: Q01DX Z (ip), vehicle: methylcellulose (MC)
[3] = dose: 400.0 mg/kg/injection, schedule: Q04DX003 (ip), vehicle: Klucel (hydroxypropylcellulose) (HPC)

CCOC(=O)CCOc1ccccc1N(CCCl)CCCl
T/C (dose: 2.6 mg/kg/injection, schedule: Q01DX Z (ip), vehicle: methylcellulose (MC)): 125 % of control
T/C (dose: 3.9 mg/kg/injection, schedule: Q01DX Z (ip), vehicle: methylcellulose (MC)): 144 % of control
T/C (dose: 6.25 mg/kg/injection, schedule: Q01DX009 (ip), vehicle: other): 130 % of control
T/C (dose: 8.7 mg/kg/injection, schedule: Q01DX Z (ip), vehicle: methylcellulose (MC)): 128 % of control
T/C (dose: 12.5 mg/kg/injection, schedule: Q01DX001 (ip), vehicle: carboxymethylcellulose (CMC)): 129 % of control
T/C (dose: 12.5 mg/kg/injection, schedule: Q01DX009 (ip), vehicle: other): 145 % of control
T/C (dose: 12.5 mg/kg/injection, schedule: Q01DX009 (ip), vehicle: saline with Tween-80): 131 % of control [5 of 6 alive]
T/C [1]: 125 % of control
survivor count [1]: 0 of 6
T/C (dose: 20.0 mg/kg/injection, schedule: Q01DX Z (ip), vehicle: methylcellulose (MC)): 146 % of control
T/C (dose: 25.0 mg/kg/injection, schedule: Q01DX009 (ip), vehicle: saline with Tween-80): 127 % of control
T/C [2]: 132 % of control [5 of 6 alive]
survivor count [2]: 0 of 6
T/C (dose: 50.0 mg/kg/injection, schedule: Q01DX001 (ip), vehicle: carboxymethylcellulose (CMC)): 125 and 135 % of control
survivor count (dose: 50.0 mg/kg/injection, schedule: Q04DX003 (ip), vehicle: other): 5 of 6
survivor count (dose: 75.0 mg/kg/injection, schedule: Q01DX Z (ip), vehicle: methylcellulose (MC)): 0 of 6
T/C (dose: 100.0 mg/kg/injection, schedule: Q01DX009 (ip), vehicle: saline sonified): 148 % of control
survivor count (dose: 150.0 mg/kg/injection, schedule: Q01DX Z (ip), vehicle: methylcellulose (MC)): 6 of 6
survivor count (dose: 200.0 mg/kg/injection, schedule: Q04DX003 (ip), vehicle: Klucel (hydroxypropylcellulose) (HPC)): 5 of 6
survivor count [3]: 0 of 6

CN1Cc2c(ccc3c2OCO3)[C@@H]2[C@H](O)Cc3cc4c(cc3[C@@H]21)OCO4
T/C (dose: 150.0 mg/kg/injection, schedule: Q01DX Z (ip), vehicle: carboxymethylcellulose (CMC)): 126 % of control
T/C [3]: 136 % of control

CCCCCCCCCCCCNC(=O)C[n+]1cccc(C(=O)N(C)C)c1
survivor count (dose: 100.0 mg/kg/injection, schedule: Q04DX003 (ip), vehicle: saline): 3 of 6
survivor count (dose: 200.0 mg/kg/injection, schedule: Q04DX003 (ip), vehicle: saline): 0 of 6
survivor count (dose: 400.0 mg/kg/injection, schedule: Q04DX003 (ip), vehicle: saline): 0 of 6

O=C(CCl)c1ccc[nH]1
survivor count (dose: 150.0 mg/kg/injection, schedule: Q01DX001 (ip), vehicle: carboxymethylcellulose (CMC)): 3 of 6
survivor count (dose: 200.0 mg/kg/injection, schedule: Q01DX015 (ip), vehicle: carboxymethylcellulose (CMC)): 0 of 6
survivor count (dose: 300.0 mg/kg/injection, schedule: Q01DX001 (ip), vehicle: carboxymethylcellulose (CMC)): 0 of 6
survivor count (dose: 400.0 mg/kg/injection, schedule: Q01DX015 (ip), vehicle: carboxymethylcellulose (CMC)): 0 of 6

CCOC1CCC2C(CCC(/C=C/c3ccc(O)c4ncccc34)N2C)C1 (configuration not stated)
T/C (dose: 60.0 mg/kg/injection, schedule: Q01DX015 (ip), vehicle: saline): 127 % of control
T/C (dose: 88.8 mg/kg/injection, schedule: Q01DX001 (ip), vehicle: saline): 128 % of control
T/C (dose: 200.0 mg/kg/injection, schedule: Q01DX001 (ip), vehicle: saline, evaluated on day 30): 116 % of control
survivor count (dose: 200.0 mg/kg/injection, schedule: Q01DX001 (ip), vehicle: saline): 2 of 4
T/C (dose: 200.0 mg/kg/injection, schedule: Q01DX001 (ip), vehicle: saline, run until all animals had died): 129 and 134 % of control
survivor count (dose: 300.0 mg/kg/injection, schedule: Q01DX001 (ip), vehicle: saline): 2 of 4
survivor count (dose: 400.0 mg/kg/injection, schedule: Q01DX001 (ip), vehicle: saline): 0 of 4

C=CCOCC(O)CN(CC)c1ccccc1 (configuration not stated)
survivor count (dose: 100.0 mg/kg/injection, schedule: Q01DX009 (ip), vehicle: Klucel (hydroxypropylcellulose) (HPC)): 3 of 6
